This is an account of results in PubChem BioAssay AID2685 (National Center for Advancing Translational Sciences (NCATS), 2010).

The list shows a part of the results. Shown are side measurements of this screen, not its main read-out; they come without a call. Most of these compounds were active or inconclusive in the main read-out, so they are no random draw. The note in brackets gives the kind of curve behind each potency; many fits are weak.

The assay in a line: qHTS Assay for Lipid Storage Modulators in Drosophila S3 Cells.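 For cell number change: cells counted by Cell Tracker Red CMTPX staining in the red channel.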 The note with it: BODIPY lipid droplet fluorescence, 18-24 h; for cell number change: measured here: cell count max response, cells fed with added oleic acid. In a few lines: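 Drosophila S3 cells got compounds at several concentrations plus oleic acid (400 uM solution). Laser-scanning cytometry with 488 nm excitation read lipid droplets at 500-530 nm and cells at 575-640 nm. Percent activity was relative to 20 uM Triacsin C.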
A general note: Quantitative high-throughput screening tests each substance at several concentrations.

Setting [1] is: measured here: lipid fluorescence (Fed channel) AC50, cells fed with added oleic acid.
The mark [2] stands for this setting: measured here: cell number channel AC50, cells fed with added oleic acid.

As for `COc1ccc(CCNC(=O)CCCn2c(=O)c3cccn3c3cccnc32)c(OC)c1OC`, the cell number change was -13%. Besides, under setting [1], the AC50 – broadly, the concentration at which the activity in the assay is half-maximal – is 0.0651 µM [falling, full curve, poor fit].
`Cc1nc(C(F)(F)F)nc(Nc2ccc(Br)cc2)c1C#N`: the AC50 runs as follows: under setting [2], 0.92 µM [rising, partial curve]; under setting [1], 6.51 µM [rising, single point].
In the case of `COc1ccc(CNC(=O)CSc2ccc(Br)cc2)cc1OC`, the cell number change was -1.16%. Further, the AC50 under setting [1] was 0.00461 µM [falling, full curve].
Take `Cc1c(NC(=O)C(C)OC(=O)c2sc3ccccc3c2Cl)c(=O)n(-c2ccccc2)n1C` (stereo not given): the cell number change is -16.7%.
As to `O=C(Cc1cccs1)Nc1nc(-c2cccnc2)cs1`, the cell number change amounted to 5.94%. Further, the AC50 under setting [2] is 3.66 µM [rising, partial curve]. In addition, under setting [1], the AC50 is 2.59 µM [rising, full curve].
Regarding `COc1cccc(CNC(=O)CCC(=O)N2CCOCC2)c1`, the AC50 under setting [1] is 29.1 µM [falling, single point].
With `CCOC(=O)c1cc2ccc3ccccc3c2s1`, the cell number change was -30.7%. Besides, the AC50 under setting [2] is 14.6 µM [falling, single point].
Consider `CCOC(=O)Nc1ccc2c(c1)ncn2C1CCCCC1`, for which the cell number change came to 10.7%. In addition, the AC50 under setting [1] is 29.1 µM [rising, single point].
`OCc1ccc(O)c2ncccc12`: the cell number change is -48.8%. For the same compound, under setting [2], the AC50 is 23.1 µM [falling, partial curve, poor fit]. For the same compound, under setting [1], the AC50 is 23.1 µM [falling, partial curve].
As to `CC(=O)Nc1ccc(S(=O)(=O)Nc2ccn(Cc3ccccc3Cl)n2)cc1`, the cell number change was -19.6%. Besides, the AC50 under setting [1] was 0.58 µM [rising, single point].
Turning to `O=C(NC(=S)Nc1cccc([N+](=O)[O-])c1)C1CCCC1`, the cell number change is -5.45%. The AC50 under setting [1] is 29.1 µM [rising, single point].
As for `COc1ccc2c(c1)[nH]c1c(N3CCSCC3)ncnc12`, the cell number change is -35.2%. In addition, the AC50 under setting [2] is 29.1 µM [falling, single point]. In addition, the AC50 under setting [1] was 16.4 µM [falling, single point].
Consider `COc1ccc(C)cc1Nc1nc(C)nc2sc(C)cc12`, for which the cell number change worked out at 6.11%. Besides, the AC50 under setting [1] is 0.82 µM [rising, full curve, poor fit].
For `CCCN(CCC)C(=O)C1CCCN1S(=O)(=O)c1cccc2nsnc12` (stereo not given), the cell number change is -10.9%.
Consider `CC1(C)CC(=O)C(C=NCCC2=CCCCC2)=C(O)C1`, for which the cell number change was 6.18%.
Turning to `COc1ccc(-n2nc([N+](=O)[O-])c(=NCCCN3CCCC3=O)n2O)cc1`, the cell number change stood at 19.8%. Besides, the AC50 under setting [1] is 13 µM [rising, single point].
As to `COc1ccc(-n2cc(-c3ccc(OC)c(OC)c3)[nH]c2=S)cc1`, the cell number change is 3.88%. The AC50 under setting [1] is 0.0731 µM [rising, full curve].
`CC1=CC(C)(C)N(C(=O)CSc2ncn[nH]2)c2ccccc21`: the AC50 was 1.46 µM [rising, partial curve] under setting [2] and 1.64 µM [rising, partial curve, poor fit] under setting [1].
`COc1ccc2oc(C(=O)OCC(=O)N3CCCCC3)c(C)c2c1`: the cell number change is 71.7%. Moreover, the AC50 under setting [2] is 14.6 µM [rising, partial curve].
For the compound `COc1ccc(-n2cccc2C=O)cc1`, the cell number change was 6.95%. For the same compound, the AC50 under setting [1] was 0.092 µM [rising, full curve, poor fit].
Consider `CCOc1ccc(CCNS(=O)(=O)c2cccc3nsnc23)cc1OCC`, for which the cell number change came to 7.81%. Further, the AC50 under setting [1] was 13 µM [rising, partial curve].
Regarding `O=C(CNC(=O)[C@@H]1Cc2ccccc2CN1)Nc1ccc2c(c1)OCO2`, the cell number change amounted to 50.2%. In addition, under setting [2], the half-maximal activity concentration (AC50) was 29.1 µM [rising, single point]. The AC50 under setting [1] is 29.1 µM [rising, single point].
Regarding `Cc1nn(Cc2ccccc2Cl)c(Cl)c1/C=C/C(=O)OCC(=O)NC(N)=O`, the cell number change came to 16.9%. The AC50 under setting [1] is 1.03 µM [rising, full curve, poor fit].
Take `COCCCN1C(=O)c2ccc(C(=O)N3CCN(c4ccc(OC)cc4)CC3)cc2C1=O`: the cell number change is -11%. The AC50 under setting [1] was 29.1 µM [falling, single point].
With `CN(C1=C(N2CCOCC2)C(=O)c2ccccc2C1=O)c1ccccc1`, the cell number change was -48.4%. For the same compound, under setting [2], the AC50 was 25.9 µM [falling, partial curve]. Also, the AC50 under setting [1] is 18.4 µM [falling, partial curve].
For `CCOC(=O)c1ccccc1NC(=O)CSc1nnc(C)c(=O)[nH]1`, the cell number change amounted to 2.63%.
As for `Cc1ccc2[nH]c(=O)c3cc(C(=O)N(C)Cc4ccco4)sc3c2c1`, the cell number change was -33.3%. Also, under setting [2], the AC50 was 29.1 µM [falling, single point].
For `CC(C)=CCC/C(C)=C/COc1ccc2ccc(=O)oc2c1`, the cell number change is -24.4%. Moreover, under setting [1], the AC50 is 32.6 µM [falling, single point].
On to `O=C(Cc1ccc(F)cc1)Nc1ccc(S(=O)(=O)N2CCCCC2)cc1`, for which the cell number change was -45.2%. Further, the AC50 under setting [2] is 23.1 µM [falling, single point]. In addition, the concentration at half-maximal activity (AC50) under setting [1] is 29.1 µM [falling, single point].
In the case of `CC1CCCN(S(=O)(=O)c2ccc(S(=O)(=O)N3CCCC3)cc2)C1` (stereo not given), the cell number change was found to be 15.4%. Further, the AC50 under setting [1] was 29.1 µM [rising, single point].
As for `Cc1[nH][nH]c(=O)c1C(c1c(C)[nH][nH]c1=O)c1cn(Cc2cccc3ccccc23)c2ccccc12`, the cell number change was -64.6%. Besides, the AC50 under setting [2] is 13 µM [falling, partial curve]. Also, under setting [1], the AC50 is 23.1 µM [falling, partial curve, poor fit].
Take `O=C(NNc1cc(Cl)cc(Cl)c1)c1c(F)cccc1Cl`: the cell number change stood at 10.6%. Also, the AC50 under setting [2] is 0.58 µM [rising, single point].
Consider `CC(=O)c1c(C)[nH]c(C(=O)OCC(=O)Nc2ccc(C)cc2[N+](=O)[O-])c1C`, for which the cell number change is -51.2%. Besides, under setting [2], the AC50 is 14.6 µM [falling, partial curve, poor fit]. Further, the AC50 under setting [1] is 16.4 µM [falling, single point].
For `CC(=O)c1ccc(NC(=O)C(C)OC(=O)c2ccc(NS(=O)(=O)c3ccc(F)c(F)c3)cc2)cc1` (stereo not given), the cell number change worked out at 2.01%. Besides, the AC50 under setting [1] is 0.58 µM [falling, single point].
Take `O=C(NCc1cccc(Br)c1)C1CC(c2ccccc2C(F)(F)F)=NO1` (stereo not given): the cell number change amounted to 6.36%. Besides, the AC50 under setting [1] was 1.64 µM [rising, full curve].
On to `CC1(C)CC(=O)c2sc(NS(=O)(=O)c3cc(Cl)ccc3Cl)nc2C1`, for which the cell number change was -8.57%. For the same compound, under setting [1], the AC50 was 6.51 µM [falling, single point].
With `O=S(=O)(Nc1ccc(F)cc1Cl)c1ccc(-c2cnc(C3CC3)o2)cc1`, the cell number change is -2.36%.
Turning to `COc1ccc(C2NC(=O)c3ccccc3O2)c(OC)c1OC` (stereo not given), the cell number change is -20.5%. In addition, the AC50 under setting [2] is 2.06 µM [falling, full curve, poor fit]. For the same compound, the AC50 under setting [1] is 1.84 µM [falling, full curve, poor fit].
`O=C(Cc1csc(-c2ccccc2)n1)NCc1ccccc1F`: the cell number change was determined as 3.13%.
Regarding `O=C(O)COc1ccccc1/C=N/NC(=O)CN1CCN(S(=O)(=O)c2ccc(Br)cc2)CC1`, under setting [1], the AC50 was 23.1 µM [rising, single point].
As to `Cc1ccc(S(=O)(=O)NN2C(=O)/C(=C/c3cccc(F)c3)SC2=S)cc1`, the cell number change is -18%. Besides, the AC50 under setting [1] is 0.164 µM [falling, full curve].
As to `O=c1[nH]c(CSc2nc3ccccc3o2)nc2c1cnn2-c1ccccc1`, the AC50 is 0.092 µM [falling, full curve, poor fit] under setting [2] and 0.184 µM [falling, full curve] under setting [1].
Consider `Cn1c(SCC(N)=O)nnc1C1CCN(C(=O)NCc2ccccc2)CC1`, for which the cell number change was 13.3%. Further, the AC50 under setting [1] is 0.366 µM [falling, single point].
With `CC(C)COC(=O)Cc1c(O)c2ccccc2[nH]c1=O`, the cell number change is 35.1%. In addition, the AC50 under setting [2] was 36.6 µM [rising, partial curve, poor fit]. Moreover, under setting [1], the AC50 was 0.731 µM [rising, partial curve, poor fit].
Take `CNS(=O)(=O)c1ccc2nc(NC(=O)/C=C/c3ccco3)sc2c1`: the cell number change was -31%. Further, the AC50 under setting [2] was 16.4 µM [falling, single point]. Under setting [1], the AC50 was 16.4 µM [falling, single point].
In the case of `CN(C)c1cnn(-c2ccccc2)c(=O)c1Cl`, the cell number change was -27.8%. For the same compound, the AC50 under setting [1] is 0.0164 µM [falling, full curve].
`COc1ccc(CNS(=O)(=O)c2cc(-c3cc(C)no3)ccc2C)cc1OC`: the cell number change was -21.3%. The half-maximal activity concentration (AC50) under setting [1] is 29.1 µM [falling, single point].
Consider `Cc1cccc(NC(=O)COC(=O)c2n[nH]c3ccccc23)c1C`, for which the cell number change was -16.1%. Further, the AC50 under setting [2] was 1.84 µM [rising, partial curve].
Take `COc1ccccc1CCNC(=O)c1ccc(NC(=O)CC2SC(N3CCCCC3)=NC2=O)cc1` (stereo not given): the cell number change was -1.97%. Also, the AC50 under setting [1] was 6.51 µM [rising, single point].
As to `Cc1ccc(N2C(=O)CCSC23C(=O)Nc2ccccc23)cc1` (stereo not given), the cell number change amounted to 42.4%. The AC50 under setting [2] is 32.6 µM [rising, single point].
Take `CC(C)c1ccc(NC(=O)N2CCc3ccccc3C2)cc1`: the cell number change was found to be 22.7%. For the same compound, the AC50 under setting [2] was 0.103 µM [rising, full curve, poor fit].
In the case of `O=C(NC(Cc1ccccc1)C(=O)OCC(=O)N1CCc2ccccc21)c1ccco1` (stereo not given), the cell number change turned out to be 209%.
In the case of `COc1ccc(C2C(C#N)=C(N)Oc3cc(C)n(Cc4ccco4)c(=O)c32)cc1` (stereo not given), the cell number change amounted to 4.07%. Moreover, under setting [1], the AC50 was 1.64 µM [rising, partial curve].
Consider `CSc1ccccc1C(=O)NCc1ccc(C)cc1`, for which the AC50 by setting is: under setting [2], 6.51 µM [falling, single point]; under setting [1], 2.91 µM [falling, single point].
Turning to `CN(C)S(=O)(=O)c1ccc(Oc2ccc(S(=O)(=O)N(C)C)cc2)cc1`, the cell number change came out at 8.3%. Besides, under setting [2], the AC50 was 6.51 µM [rising, single point]. In addition, under setting [1], the AC50 was 29.1 µM [falling, single point].
For the compound `Cc1cc(C(=O)OCC(=O)Nc2ccc(F)cc2[N+](=O)[O-])c2ccccc2n1`, the cell number change was 13.7%. In addition, under setting [1], the AC50 was 1.64 µM [rising, partial curve].
As for `Cc1ccccc1NC(=S)Nn1cnnc1`, the cell number change is -3.23%. The AC50 under setting [1] was 2.06 µM [falling, partial curve].
As for `CC(O)[C@H]1CC[C@H]2[C@@H]3CC[C@H]4C[C@@H](O)CC[C@]4(C)[C@H]3C(=O)C[C@]12C` (stereo not given in full), the cell number change was -35.8%. Besides, the AC50 under setting [2] is 0.206 µM [falling, full curve, poor fit]. Further, the AC50 under setting [1] is 0.146 µM [falling, full curve, poor fit].
